Taken from: PubChem BioAssay AID1259425 (University of Nebraska Medical Center, 2018)
The deposit covers about 14,000 reagents; this is an unselected part. Reagent sequences are not shown. Not given: the time to read-out.

Screen: 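Find knockdowns that reproduce the gene expression pattern seen when KSR1 is lost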 (primary screen)
Cells: HCT116 human colon cancer cells
Reagent: siRNA pool against human genes, 50 nM siRNA
Measurement: 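mRNA of six signature genes measured together by branched-DNA assay after 50 nM siRNA pool, blank removed, divided by geometric mean of two housekeeping genes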
Direction: BNIP3L mRNA: higher = more BNIP3L transcript after knockdown; NDRG1 mRNA: higher = more NDRG1 transcript after knockdown; BNIP3 mRNA: higher = more BNIP3 transcript after knockdown; ALDOC mRNA: higher = more ALDOC transcript after knockdown; ACSL5 mRNA: higher = more ACSL5 transcript after knockdown

| Gene | BNIP3L mRNA, set 1 | NDRG1 mRNA, set 1 | BNIP3 mRNA, set 1 | ALDOC mRNA, set 1 | ACSL5 mRNA, set 1 |
| --- | --- | --- | --- | --- | --- |
| POC1A (GeneID 25886) | 0.165 | 0.123 | 0.325 | 0.0313 | 0.131 |
| ABI2 (GeneID 10152) | 0.097 | 0.278 | 0.169 | 0.0195 | 0.131 |
| RCOR1 (GeneID 23186) | 0.217 | 0.0722 | 0.38 | 0.0256 | 0.0756 |
| SHQ1 (GeneID 55164) | 0.0737 | 0.0837 | 0.213 | 0.0415 | 0.0886 |
| SLC22A13 (GeneID 9390) | 0.168 | 0.209 | 0.398 | 0.0466 | 0.109 |
| RING1 (GeneID 6015) | 0.119 | 0.104 | 0.268 | 0.0298 | 0.0735 |
| MCHR1 (GeneID 2847) | 0.175 | 0.226 | 0.387 | 0.1 | 0.284 |
| AGRP (GeneID 181) | 0.145 | 0.491 | 0.316 | 0.0932 | 0.231 |
| UNC93A (GeneID 54346) | 0.0887 | 0.138 | 0.211 | 0.0148 | 0.171 |
| HOXD4 (GeneID 3233) | 0.123 | 0.156 | 0.293 | 0.0123 | 0.132 |
| ANXA3 (GeneID 306) | 0.0827 | 0.0766 | 0.3 | 0.0155 | 0.172 |
| CEP104 (GeneID 9731) | 0.0389 | 0.126 | 0.282 | 0.0178 | 0.122 |
| PEX3 (GeneID 8504) | 0.091 | 0.233 | 0.267 | 0.0482 | 0.176 |
| BIRC8 (GeneID 112401) | 0.106 | 0.815 | 0.21 | 0.0388 | 0.225 |
| NAA10 (GeneID 8260) | 0.228 | 0.507 | 0.432 | 0.0423 | 0.0597 |
| THY1 (GeneID 7070) | 0.0786 | 0.419 | 0.342 | 0.035 | 0.139 |
| RTN4RL1 (GeneID 146760) | 0.0919 | 0.111 | 0.293 | 0.023 | 0.106 |
| MYF5 (GeneID 4617) | 0.159 | 0.152 | 0.287 | 0.02 | 0.138 |
| MRPL39 (GeneID 54148) | 0.0814 | 0.172 | 0.291 | 0.0495 | 0.194 |
| TAS2R9 (GeneID 50835) | 0.0674 | 0.362 | 0.35 | 0.0711 | 0.174 |
| ZNF226 (GeneID 7769) | 0.185 | 0.828 | 0.358 | 0.066 | 0.153 |
| PPM1H (GeneID 57460) | 0.105 | 0.4 | 0.26 | 0.0387 | 0.185 |
| ZNF264 (GeneID 9422) | 0.199 | 0.286 | 0.323 | 0.0365 | 0.164 |
| GOLGA4 (GeneID 2803) | 0.0639 | 0.14 | 0.232 | 0.0122 | 0.129 |
| HPS4 (GeneID 89781) | 0.0549 | 0.0515 | 0.309 | 0.00913 | 0.161 |
| PROC (GeneID 5624) | 0.0773 | 0.301 | 0.245 | 0.0145 | 0.126 |
| DEPDC5 (GeneID 9681) | 0.146 | 0.267 | 0.196 | 0.0262 | 0.189 |
| EBF4 (GeneID 57593) | 0.106 | 0.219 | 0.327 | 0.00556 | 0.265 |
| UTP6 (GeneID 55813) | 0.0508 | 0.102 | 0.268 | 0.0213 | 0.133 |
| EPHB4 (GeneID 2050) | 0.0934 | 0.0896 | 0.327 | 0.0104 | 0.168 |
| WNT9B (GeneID 7484) | 0.0751 | 0.135 | 0.333 | 0.0183 | 0.0896 |
| DPYSL5 (GeneID 56896) | 0.2 | 0.41 | 0.403 | 0.071 | 0.297 |
| NDST2 (GeneID 8509) | 0.155 | 0.171 | 0.34 | 0.0299 | 0.279 |
| RAB35 (GeneID 11021) | 0.123 | 0.309 | 0.295 | 0.0749 | 0.122 |
| PSMB4 (GeneID 5692) | 0.303 | 0.65 | 0.275 | 0.0515 | 0.188 |
| HCFC2 (GeneID 29915) | 0.0616 | 0.139 | 0.235 | 0.00135 | 0.358 |
| OPRM1 (GeneID 4988) | 0.26 | 0.231 | 0.444 | 0.0438 | 0.18 |
| SLC7A8 (GeneID 23428) | 0.142 | 0.17 | 0.335 | 0.0143 | 0.0546 |
| LRRC4 (GeneID 64101) | 0.114 | 0.698 | 0.207 | 0.0743 | 0.261 |
| EIPR1 (GeneID 7260) | 0.0649 | 0.136 | 0.309 | 0.0248 | 0.128 |
| TRPM7 (GeneID 54822) | 0.177 | 0.172 | 0.298 | 0.0101 | 0.265 |
| MYORG (GeneID 57462) | 0.164 | 0.328 | 0.322 | 0.0649 | 0.343 |
| ALG9 (GeneID 79796) | 0.113 | 0.215 | 0.335 | 0.0287 | 0.149 |
| SERPINB2 (GeneID 5055) | 0.101 | 0.127 | 0.252 | 0.025 | 0.101 |
| GPR15 (GeneID 2838) | 0.4 | 0.571 | 1.23 | 0.1 | 0.146 |
| GJB1 (GeneID 2705) | 0.0741 | 0.178 | 0.192 | 0.0533 | 0.126 |
| ESYT2 (GeneID 57488) | 0.119 | 0.202 | 0.37 | 0.0524 | 0.211 |
| STRAP (GeneID 11171) | 0.116 | 0.138 | 0.333 | 0.00555 | 0.13 |
| STK16 (GeneID 8576) | 0.0926 | 0.207 | 0.179 | 0.0249 | 0.131 |
| MCEE (GeneID 84693) | 0.153 | 0.318 | 0.445 | 0.0521 | 0.179 |
| GCNT3 (GeneID 9245) | 0.147 | 0.623 | 0.396 | 0.0244 | 0.206 |
| CHMP1A (GeneID 5119) | 0.0531 | 0.167 | 0.257 | 0.0207 | 0.121 |
| PGGT1B (GeneID 5229) | 0.0707 | 0.276 | 0.277 | 0.0482 | 0.171 |
| RASSF4 (GeneID 83937) | 0.263 | 0.359 | 0.541 | 0.139 | 0.35 |
| CLIC2 (GeneID 1193) | 0.0948 | 0.234 | 0.404 | 0.0202 | 0.207 |
| MRPS30 (GeneID 10884) | 0.0965 | 0.282 | 0.317 | 0.0169 | 0.183 |
| SNW1 (GeneID 22938) | 0.0872 | 0.121 | 0.326 | 0.0142 | 0.134 |
| PRPSAP1 (GeneID 5635) | 0.112 | 0.165 | 0.449 | 0.006 | 0.194 |
| B4GALT4 (GeneID 8702) | 0.0751 | 0.393 | 0.484 | 0.0149 | 0.0829 |
| PIF1 (GeneID 80119) | 0.0946 | 0.107 | 0.254 | 0.0384 | 0.239 |
| CAPN2 (GeneID 824) | 0.0633 | 0.268 | 0.164 | 0.0571 | 0.204 |
| CDK19 (GeneID 23097) | 0.146 | 0.362 | 0.453 | 0.0185 | 0.139 |
| ORC4 (GeneID 5000) | 0.0661 | 0.257 | 0.221 | 0.0212 | 0.221 |

Entries listed so far whose gene name begins with R or r:
| Gene | BNIP3L mRNA, set 1 | NDRG1 mRNA, set 1 | BNIP3 mRNA, set 1 | ALDOC mRNA, set 1 | ACSL5 mRNA, set 1 |
| --- | --- | --- | --- | --- | --- |
| RCOR1 (GeneID 23186) | 0.217 | 0.0722 | 0.38 | 0.0256 | 0.0756 |
| RING1 (GeneID 6015) | 0.119 | 0.104 | 0.268 | 0.0298 | 0.0735 |
| RTN4RL1 (GeneID 146760) | 0.0919 | 0.111 | 0.293 | 0.023 | 0.106 |
| RAB35 (GeneID 11021) | 0.123 | 0.309 | 0.295 | 0.0749 | 0.122 |
| RASSF4 (GeneID 83937) | 0.263 | 0.359 | 0.541 | 0.139 | 0.35 |
